PubChem BioAssay AID1224827 – NIAID, 2016
The deposit covers about 3,800 reagents; this is an unselected part. About 2,200 of them (57%) were called active. 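Active means a strong reporter change in either direction; calls are per siRNA, not per gene; qiagen siRNAs gave weaker effects.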 Reagents against one gene are numbered here. Not all columns of the deposit are shown.

Purpose: 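Confirm genes whose knock-down changes LPS-driven TNF promoter activity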 (follow-up of hits)
Cell system: RAW264.7 G9 mouse macrophage reporter clone
Reagents: single siRNA against mouse genes, 100 nM siRNA
Timing: siRNA for 2 days, then LPS about 16 h
Conditions: bacterial lipopolysaccharide (LPS), 10 ng/ml, cells fixed after overnight (about 16 h) stimulation
Measurement: 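TNF promoter reporter red fluorescence in nuclei, background subtracted, normalised per plate and to non-targeting control siRNA, as z-scores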
Scale: TNF reporter z-score, mean: higher = stronger Tnf promoter reporter signal
Hit rule: 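Active siRNA: replicate-mean z-score of 2 or more, or -2 or less; no calls for control wells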

Slc25a4 #1
- TNF reporter z-score, mean: 4.94
- activity call: active

Slc25a4 #2
- TNF reporter z-score, mean: 2.16
- activity call: active

Slc25a4 #3
- TNF reporter z-score, mean: 0.00733
- activity call: inactive

S1pr5 (sphingosine-1-phosphate receptor 5) #1
- TNF reporter z-score, mean: 1.8
- activity call: inactive

S1pr5 (sphingosine-1-phosphate receptor 5) #2
- TNF reporter z-score, mean: -1.24
- activity call: inactive

S1pr5 (sphingosine-1-phosphate receptor 5) #3
- TNF reporter z-score, mean: -5.74
- activity call: active

S1pr5 (sphingosine-1-phosphate receptor 5) #4
- TNF reporter z-score, mean: 4.4
- activity call: active

S1pr5 (sphingosine-1-phosphate receptor 5) #5
- TNF reporter z-score, mean: 1.14
- activity call: inactive

S1pr5 (sphingosine-1-phosphate receptor 5) #6
- TNF reporter z-score, mean: 0.489
- activity call: inactive

Sytl5 (synaptotagmin-like 5) #1
- TNF reporter z-score, mean: 0.747
- activity call: inactive

Sytl5 (synaptotagmin-like 5) #2
- TNF reporter z-score, mean: -3.34
- activity call: active

Sytl5 (synaptotagmin-like 5) #3
- TNF reporter z-score, mean: -4.6
- activity call: active

Sytl5 (synaptotagmin-like 5) #4
- TNF reporter z-score, mean: 2.99
- activity call: active

Sytl5 (synaptotagmin-like 5) #5
- TNF reporter z-score, mean: 0.415
- activity call: inactive

Sytl5 (synaptotagmin-like 5) #6
- TNF reporter z-score, mean: -0.378
- activity call: inactive

Rab24 (RAB24, member RAS oncogene family) #1
- TNF reporter z-score, mean: 0.0183
- activity call: inactive

Rab24 (RAB24, member RAS oncogene family) #2
- TNF reporter z-score, mean: -5.07
- activity call: active

Rab24 (RAB24, member RAS oncogene family) #3
- TNF reporter z-score, mean: -5.09
- activity call: active

Rab24 (RAB24, member RAS oncogene family) #4
- TNF reporter z-score, mean: 4.22
- activity call: active

Rab24 (RAB24, member RAS oncogene family) #5
- TNF reporter z-score, mean: 1.07
- activity call: inactive

Rab24 (RAB24, member RAS oncogene family) #6
- TNF reporter z-score, mean: -2.89
- activity call: active

Phax (phosphorylated adaptor for RNA export) #1
- TNF reporter z-score, mean: 0.447
- activity call: inactive

Phax (phosphorylated adaptor for RNA export) #2
- TNF reporter z-score, mean: -2.14
- activity call: active

Phax (phosphorylated adaptor for RNA export) #3
- TNF reporter z-score, mean: -4.25
- activity call: active

Phax (phosphorylated adaptor for RNA export) #4
- TNF reporter z-score, mean: 2.61
- activity call: active

Phax (phosphorylated adaptor for RNA export) #5
- TNF reporter z-score, mean: 1.72
- activity call: inactive

Phax (phosphorylated adaptor for RNA export) #6
- TNF reporter z-score, mean: 1.06
- activity call: inactive

Iqcc (IQ motif containing C) #1
- TNF reporter z-score, mean: 0.399
- activity call: inactive

Iqcc (IQ motif containing C) #2
- TNF reporter z-score, mean: -4.97
- activity call: active

Iqcc (IQ motif containing C) #3
- TNF reporter z-score, mean: -5.49
- activity call: active

Trip12 (thyroid hormone receptor interactor 12) #1
- TNF reporter z-score, mean: -2.51
- activity call: active

Trip12 (thyroid hormone receptor interactor 12) #2
- TNF reporter z-score, mean: -3.79
- activity call: active

Trip12 (thyroid hormone receptor interactor 12) #3
- TNF reporter z-score, mean: -4.27
- activity call: active

Trip12 (thyroid hormone receptor interactor 12) #4
- TNF reporter z-score, mean: 6.03
- activity call: active

Trip12 (thyroid hormone receptor interactor 12) #5
- TNF reporter z-score, mean: 2.33
- activity call: active

Trip12 (thyroid hormone receptor interactor 12) #6
- TNF reporter z-score, mean: 0.976
- activity call: inactive
